# Results from US20230357222A1, “SELECTIVE SMALL MOLECULE DEGRADERS OF CEREBLON” (DANA-FARBER CANCER INSTITUTE, INC., priority 2020, published 2023).
# Protein sequences, listed by entry. Tags and fused reporters are not part of them. Lines headed by an entry give the natural chain unless they say otherwise; changes in a name come on top.
# UniProt Q96SW2: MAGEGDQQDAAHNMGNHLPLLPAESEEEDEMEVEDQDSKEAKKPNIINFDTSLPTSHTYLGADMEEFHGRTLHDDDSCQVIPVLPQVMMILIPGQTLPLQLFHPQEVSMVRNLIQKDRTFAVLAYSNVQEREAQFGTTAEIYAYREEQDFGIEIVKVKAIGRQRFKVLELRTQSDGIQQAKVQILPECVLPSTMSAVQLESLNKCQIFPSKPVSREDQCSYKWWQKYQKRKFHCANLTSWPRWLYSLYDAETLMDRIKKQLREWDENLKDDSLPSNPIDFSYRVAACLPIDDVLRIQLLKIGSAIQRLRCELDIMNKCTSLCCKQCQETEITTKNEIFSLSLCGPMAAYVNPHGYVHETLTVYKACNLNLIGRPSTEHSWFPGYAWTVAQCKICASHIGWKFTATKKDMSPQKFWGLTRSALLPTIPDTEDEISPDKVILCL
# Some of these results come from one statement about several compounds together.
# Target: T1, cereblon (CRBN) (Homo sapiens, UniProt Q96SW2)
# T1 construct: endogenous in cells; host or cells: MM1.s cells (also HEK293T, MOLT4, SK-N-DZ and Kelly cells for compound 1)
# Experiment: CRBN degradation in MM1.s cells, time course experiment, immunoblot
# Format: cell-based
# Conditions: 50-nM dose
# Description: MM1.S cells were generously provided by James Bradner (Dana-Farber Cancer Institute (DFCI), Boston, MA). MM1.S cells were cultured in Roswell Park Memorial Institute (RPMI)-1640 media containing L-glutamine, supplemented with 10% fetal bovine serum (FBS) and 1% penicillin/streptomycin. Mycoplasma testing was performed on a monthly basis and all lines were negative.
# Cells were washed with ice cold phosphate-buffered saline (PBS) before being lysed with Cell Lysis Buffer (Cell Signaling Technology®) supplemented with protease and phosphatase inhibitor cocktails (Roche®) at 4° C. for 15 minutes. The cell lysate was vortexed before being centrifuged at 14,000×g for 20 min at 4° C. Protein in cell lysate was quantified by bicinchoninic acid (BCA) assay (Pierce™). Primary antibodies used in this study include CDK9 (Cell Signaling Technology®, 2316S), CKlα (Abcam®, ab206652), CRBN (Novus Biologicals®, NBP1-91810), eRF3/GSPT1 (Abcam®, ab49878), IKZF1 (Ikaros) (Cell Signaling Technology®, 5443S), IKZF3 (Aiolos) (Cell Signaling Technology®, 15103S), VHL (Cell Signaling Technology®, 68547S), and vinculin (Abcam®, ab130007). Blot quantification was performed using Image Studio 4.0 software, normalizing to loading controls.
# The experimental protocol is set forth above in Example 7.
row,time of peak CRBN degradation,Structure (SMILES)
1,2 to 16 h,"Cc1ncsc1-c1ccc(CNC(=O)[C@@H]2C[C@@H](O)CN2C(=O)[C@@H](NC(=O)CCCCCCCCCCOc2cccc3c2C(=O)N(C2CCC(=O)NC2=O)C3=O)C(C)(C)C)cc1 (stereo partly drawn) [Compound 1, (2S,4R)-1-((2S)-2-(11-((2-(2,6-dioxopiperidin-3-yl)-1,3-dioxoisoindolin-4-yl)oxy)undecanamido)-3,3-dimethylbutanoyl)-4-hydroxy-N-(4-(4-methylthiazol-5-yl)benzyl)pyrrolidine-2-carboxamide]"
2,2 to 16 h,"Cc1ncsc1-c1ccc([C@H](C)NC(=O)[C@@H]2C[C@@H](O)CN2C(=O)[C@@H](NC(=O)CCCCCCCCCCOc2cccc3c2C(=O)N(C2CCC(=O)NC2=O)C3=O)C(C)(C)C)cc1 (stereo partly drawn) [Compound 6, (2S,4R)-1-((2S)-2-(11-((2-(2,6-Dioxopiperidin-3-Yl)-1,3-Dioxoisoindolin-4-Yl)Oxy)Undecanamido)-3,3-Dimethylbutanoyl)-4-Hydroxy-N-((S)-1-(4-(4-Methylthiazol-5-Yl)Phenyl)Ethyl)Pyrrolidine-2-Carboxamide]"
